Where two headings read alike, the source gives them in different places. No constants are given. Whether binding was seen depends on the method and setting. Binding seen in cells or lysates may run through a third protein. Some entries that bind do so weakly or less than the wild type.
T1: endogenous RARα (mouse (endogenous in TT2 ES cells)) (UniProt P11416)
T1 sequence: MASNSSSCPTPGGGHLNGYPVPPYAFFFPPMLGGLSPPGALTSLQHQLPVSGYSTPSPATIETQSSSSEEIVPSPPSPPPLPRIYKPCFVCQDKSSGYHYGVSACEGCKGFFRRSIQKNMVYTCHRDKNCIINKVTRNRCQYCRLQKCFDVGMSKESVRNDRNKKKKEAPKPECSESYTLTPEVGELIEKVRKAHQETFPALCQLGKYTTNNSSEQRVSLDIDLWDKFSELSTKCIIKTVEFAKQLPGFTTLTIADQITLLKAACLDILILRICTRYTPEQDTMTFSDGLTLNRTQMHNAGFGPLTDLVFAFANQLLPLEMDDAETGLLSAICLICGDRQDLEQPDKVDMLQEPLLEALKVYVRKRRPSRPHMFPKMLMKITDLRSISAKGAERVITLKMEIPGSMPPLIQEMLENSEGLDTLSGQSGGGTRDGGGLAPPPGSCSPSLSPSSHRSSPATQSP

The chains behind the UniProt entries cited, without tags or fusion partners.
UniProt Q9QZL0: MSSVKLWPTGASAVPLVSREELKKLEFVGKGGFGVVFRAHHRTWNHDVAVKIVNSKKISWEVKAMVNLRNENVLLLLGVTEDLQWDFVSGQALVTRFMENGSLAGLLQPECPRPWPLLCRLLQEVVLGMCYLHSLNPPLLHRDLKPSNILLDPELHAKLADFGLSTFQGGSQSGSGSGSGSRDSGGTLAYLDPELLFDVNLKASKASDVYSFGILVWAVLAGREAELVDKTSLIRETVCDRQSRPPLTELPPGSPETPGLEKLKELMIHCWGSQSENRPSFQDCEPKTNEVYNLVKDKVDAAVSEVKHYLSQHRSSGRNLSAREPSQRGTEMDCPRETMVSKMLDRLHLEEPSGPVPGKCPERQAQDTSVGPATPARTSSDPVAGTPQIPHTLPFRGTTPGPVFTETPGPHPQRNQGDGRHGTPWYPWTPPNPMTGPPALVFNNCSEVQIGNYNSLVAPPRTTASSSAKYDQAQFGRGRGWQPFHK
UniProt P45481: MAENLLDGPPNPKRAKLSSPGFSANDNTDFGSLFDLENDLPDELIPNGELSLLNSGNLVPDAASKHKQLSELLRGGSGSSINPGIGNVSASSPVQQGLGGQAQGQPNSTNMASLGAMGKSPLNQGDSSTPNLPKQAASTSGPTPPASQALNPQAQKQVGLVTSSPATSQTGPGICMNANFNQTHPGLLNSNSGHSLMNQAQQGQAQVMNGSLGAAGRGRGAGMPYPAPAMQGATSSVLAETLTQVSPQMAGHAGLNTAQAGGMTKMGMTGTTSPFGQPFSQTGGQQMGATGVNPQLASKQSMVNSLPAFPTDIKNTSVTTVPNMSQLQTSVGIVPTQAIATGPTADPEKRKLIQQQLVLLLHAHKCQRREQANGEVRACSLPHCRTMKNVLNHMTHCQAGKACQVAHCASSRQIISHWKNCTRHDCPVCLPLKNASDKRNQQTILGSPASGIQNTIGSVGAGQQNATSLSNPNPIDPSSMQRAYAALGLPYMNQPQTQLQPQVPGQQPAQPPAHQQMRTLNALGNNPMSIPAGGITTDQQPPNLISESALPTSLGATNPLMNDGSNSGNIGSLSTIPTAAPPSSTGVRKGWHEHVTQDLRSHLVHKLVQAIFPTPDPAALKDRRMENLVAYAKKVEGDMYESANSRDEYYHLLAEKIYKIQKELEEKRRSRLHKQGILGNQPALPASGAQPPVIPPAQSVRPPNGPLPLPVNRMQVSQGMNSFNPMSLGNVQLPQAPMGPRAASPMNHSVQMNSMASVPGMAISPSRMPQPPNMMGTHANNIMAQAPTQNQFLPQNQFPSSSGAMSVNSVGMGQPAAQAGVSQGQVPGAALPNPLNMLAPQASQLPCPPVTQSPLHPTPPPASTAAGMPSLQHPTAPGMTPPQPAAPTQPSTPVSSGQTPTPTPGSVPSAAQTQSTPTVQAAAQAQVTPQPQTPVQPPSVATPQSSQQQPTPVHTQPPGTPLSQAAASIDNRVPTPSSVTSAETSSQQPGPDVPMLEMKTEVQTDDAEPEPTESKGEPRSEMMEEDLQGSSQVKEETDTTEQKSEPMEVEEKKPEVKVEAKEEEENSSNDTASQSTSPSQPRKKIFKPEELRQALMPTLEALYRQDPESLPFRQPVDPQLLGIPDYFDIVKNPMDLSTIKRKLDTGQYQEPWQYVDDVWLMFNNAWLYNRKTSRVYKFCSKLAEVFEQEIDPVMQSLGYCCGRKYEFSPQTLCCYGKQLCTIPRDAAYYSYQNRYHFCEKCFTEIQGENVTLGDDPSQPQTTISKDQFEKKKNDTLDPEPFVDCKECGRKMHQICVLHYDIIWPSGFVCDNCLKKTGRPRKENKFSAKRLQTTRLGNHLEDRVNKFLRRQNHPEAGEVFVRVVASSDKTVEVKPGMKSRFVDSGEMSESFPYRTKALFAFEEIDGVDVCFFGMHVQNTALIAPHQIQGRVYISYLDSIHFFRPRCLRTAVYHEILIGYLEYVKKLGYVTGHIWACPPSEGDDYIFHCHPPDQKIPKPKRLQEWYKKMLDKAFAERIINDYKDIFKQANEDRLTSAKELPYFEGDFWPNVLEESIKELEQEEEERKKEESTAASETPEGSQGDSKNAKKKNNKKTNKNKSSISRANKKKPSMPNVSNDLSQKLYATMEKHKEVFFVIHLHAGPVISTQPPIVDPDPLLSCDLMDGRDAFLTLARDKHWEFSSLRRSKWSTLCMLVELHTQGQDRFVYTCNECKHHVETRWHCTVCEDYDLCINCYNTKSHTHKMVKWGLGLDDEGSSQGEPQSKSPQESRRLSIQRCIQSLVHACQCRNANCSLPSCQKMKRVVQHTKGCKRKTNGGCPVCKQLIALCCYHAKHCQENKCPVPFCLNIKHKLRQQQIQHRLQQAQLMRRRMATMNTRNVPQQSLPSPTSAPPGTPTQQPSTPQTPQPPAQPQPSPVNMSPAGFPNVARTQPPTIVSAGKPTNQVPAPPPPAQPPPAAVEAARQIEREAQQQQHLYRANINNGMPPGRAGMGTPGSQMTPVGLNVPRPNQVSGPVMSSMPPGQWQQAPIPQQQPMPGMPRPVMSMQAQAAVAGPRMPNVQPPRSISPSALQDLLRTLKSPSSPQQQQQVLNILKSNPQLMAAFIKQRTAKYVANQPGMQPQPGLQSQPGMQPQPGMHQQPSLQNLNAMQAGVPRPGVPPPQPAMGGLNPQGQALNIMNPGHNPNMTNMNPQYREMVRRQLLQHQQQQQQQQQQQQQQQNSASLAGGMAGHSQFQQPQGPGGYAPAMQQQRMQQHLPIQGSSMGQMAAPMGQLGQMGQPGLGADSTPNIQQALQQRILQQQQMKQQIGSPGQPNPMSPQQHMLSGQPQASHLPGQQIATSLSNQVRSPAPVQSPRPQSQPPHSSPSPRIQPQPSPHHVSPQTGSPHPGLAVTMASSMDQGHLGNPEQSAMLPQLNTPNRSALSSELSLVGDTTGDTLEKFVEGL
UniProt P56581: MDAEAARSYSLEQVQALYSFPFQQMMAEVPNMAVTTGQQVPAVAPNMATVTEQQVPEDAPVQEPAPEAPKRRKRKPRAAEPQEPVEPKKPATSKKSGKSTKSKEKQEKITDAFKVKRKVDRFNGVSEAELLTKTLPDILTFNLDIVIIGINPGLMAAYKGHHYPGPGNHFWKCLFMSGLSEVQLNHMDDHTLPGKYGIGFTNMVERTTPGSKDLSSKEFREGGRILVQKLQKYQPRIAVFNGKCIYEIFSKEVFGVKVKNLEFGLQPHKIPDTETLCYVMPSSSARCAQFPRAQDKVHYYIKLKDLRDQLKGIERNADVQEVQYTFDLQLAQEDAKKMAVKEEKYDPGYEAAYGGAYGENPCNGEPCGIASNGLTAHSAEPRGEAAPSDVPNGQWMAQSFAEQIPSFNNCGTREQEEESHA


Columns and labels:
[1] = target: shRipk3-resistant 3xFlag-Wt RIPK3 (mouse) (UniProt Q9QZL0); assay: co-IP; IP with anti-Flag antibody (control IgG) from 4-day EBs of Tet-On shCasp8 ES cells expressing shRipk3 and shRipk3-resistant 3xFlag-Ripk3, with or without 1 μg/ml Dox, with or without 1 μM RA for the last 2 days; western blot of endogenous partners; RIPA buffer
[2] = target: T1, endogenous RARα (mouse (endogenous in TT2 ES cells)); assay: co-IP; IP with anti-RARα (control IgG) from 4-day EBs of Tet-On shCasp8 ES cells, with or without 1 μg/ml Dox, with or without 1 μM RA for the last 2 days; endogenous proteins; RIPA buffer
[3] = target: shRipk3-resistant 3xFlag-Wt RIPK3 (mouse) (UniProt Q9QZL0); assay: co-IP; IP with anti-Flag antibody (control IgG) from 4-day EBs of Tet-On shCasp8 ES cells expressing shRipk3 and shRipk3-resistant 3xFlag-Ripk3, with or without 1 μg/ml Dox, with or without 1 μM RA for the last 2 days; western blot of endogenous partners; RIPA buffer; remark: listed apart in the source

Molecule | binding [1] | binding [3] | further results
CBP (from UniProt P45481 1-2441) | binds |  | 
endogenous RIPK3 (from UniProt Q9QZL0 1-486) |  |  | binding [2]: binds
RXRα (protein, UniProt P28700 1-467) MDTKHFLPLDFSTQVNSSSLNSPTGRGSMAVPSLHPSLGPGIGSPLGSPGQLHSPISTLSSPINGMGPPFSVISSPMGPHSMSVPTTPTLGFGTGSPQLNSPMNPVSSTEDIKPPLGLNGVLKVPAHPSGNMASFTKHICAICGDRSSGKHYGVYSCEGCKGFFKRTVRKDLTYTCRDNKDCLIDKRQRNRCQYCRYQKCLAMGMKREAVQEERQRGKDRNENEVESTSSANEDMPVEKILEAELAVEPKTETYVEANMGLNPSSPNDPVTNICQAADKQLFTLVEWAKRIPHFSELPLDDQVILLRAGWNELLIASFSHRSIAVKDGILLATGLHVHRNSAHSAGVGAIFDRVLTELVSKMRDMQMDKTELGCLRAIVLFNPDSKGLSNPAEVEALREKVYASLEAYCKHKYPEQPGRFAKLLLRLPALRSIGLKCLEHLFFFKLIGDTPIDTFLMEMLEAPHQAT |  | binds | 

Continued, in another order:

binding [1] | binding [3] | Molecule | further results
binds |  | TDG (from UniProt P56581 1-421) | 
 | binds | endogenous RARα (protein, UniProt P11416 1-462) MASNSSSCPTPGGGHLNGYPVPPYAFFFPPMLGGLSPPGALTSLQHQLPVSGYSTPSPATIETQSSSSEEIVPSPPSPPPLPRIYKPCFVCQDKSSGYHYGVSACEGCKGFFRRSIQKNMVYTCHRDKNCIINKVTRNRCQYCRLQKCFDVGMSKESVRNDRNKKKKEAPKPECSESYTLTPEVGELIEKVRKAHQETFPALCQLGKYTTNNSSEQRVSLDIDLWDKFSELSTKCIIKTVEFAKQLPGFTTLTIADQITLLKAACLDILILRICTRYTPEQDTMTFSDGLTLNRTQMHNAGFGPLTDLVFAFANQLLPLEMDDAETGLLSAICLICGDRQDLEQPDKVDMLQEPLLEALKVYVRKRRPSRPHMFPKMLMKITDLRSISAKGAERVITLKMEIPGSMPPLIQEMLENSEGLDTLSGQSGGGTRDGGGLAPPPGSCSPSLSPSSHRSSPATQSP | 

— paper PMC7206185
